# Results are given in words; binding and its absence hold for the method and conditions named. In cells and extracts the contact can be indirect. Some binding calls cover weakened binding; strength is not graded here. Sequences can lack the tags named with a protein.
# T1: Pcf1-YFP (large subunit of fission yeast CAF-1) (S. pombe) (UniProt Q1MTN9)
# T1 sequence: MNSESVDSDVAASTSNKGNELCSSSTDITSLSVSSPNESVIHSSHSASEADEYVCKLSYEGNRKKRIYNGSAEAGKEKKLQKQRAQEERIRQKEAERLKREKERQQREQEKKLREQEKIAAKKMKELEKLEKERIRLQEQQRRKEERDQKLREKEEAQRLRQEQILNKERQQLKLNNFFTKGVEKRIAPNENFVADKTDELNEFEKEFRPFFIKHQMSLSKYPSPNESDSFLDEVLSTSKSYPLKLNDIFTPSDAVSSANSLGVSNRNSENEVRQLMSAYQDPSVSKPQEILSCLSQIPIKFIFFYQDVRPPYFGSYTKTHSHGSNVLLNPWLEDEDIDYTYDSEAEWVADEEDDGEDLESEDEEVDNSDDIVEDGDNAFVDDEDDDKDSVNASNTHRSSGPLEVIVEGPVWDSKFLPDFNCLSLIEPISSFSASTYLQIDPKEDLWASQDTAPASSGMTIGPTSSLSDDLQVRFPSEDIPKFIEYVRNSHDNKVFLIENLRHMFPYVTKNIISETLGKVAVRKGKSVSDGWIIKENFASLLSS
# Target: T1, Pcf1-YFP (large subunit of fission yeast CAF-1) (S. pombe)
# Experiment: co-IP; S. pombe extract in EB buffer (50 mM HEPES, 50 mM KOAc pH 7.5, 5 mM EGTA, 1% triton X-100); Pcf1-YFP or Pcf1PIP^mut-YFP precipitated with anti-GFP and Dynabeads protein-G at 4°C; Western blot with anti-GFP, anti-Myc, Rqh1 antibody, anti-PCNA
row,Binder,binding
1,"Rqh1-MYC (enzyme, UniProt Q09811 1-1328) MTVTKTNLNRHLDWFFRESPQKIENVTSPIKTLDFVKVKVSSSDIVVKDSIPHKSKNVFDDFDDGYAIDLTEEHQSSSLNNLKWKDVEGPNILKPIKKIAVPASESEEDFDDVDEEMLRAAEMEVFQSCQPLAVNTADTTVSHSTSSSNVPRSLNKIHDPSRFIKDNDVENRIHVSSASKVASISNTSKPNPIVSENPISATSVSIEIPIKPKELSNNLPFPRLNNNNTNNNNDNNAIEKRDSASPTPSSVSSQISIDFSTWPHQNLLQYLDILRDEKSEISDRIIEVMERYPFSSRFKEWIPKRDILSQKISSVLEVLSNNNNSNNNNGNNGTVPNAKTFFTPPSSITQQVPFPSTIIPESTVKENSTRPYVNSHLVANDKITATPFHSEAVVSPLQSNIRNSDIAEFDEFDIDDADFTFNTTDPINDESGASSDVVVIDDEEDDIENRPLNQALKASKAAVSNASLLQSSSLDRPLLGEMKDKNHKVLMPSLDDPMLSYPWSKEVLGCLKHKFHLKGFRKNQLEAINGTLSGKDVFILMPTGGGKSLCYQLPAVIEGGASRGVTLVISPLLSLMQDQLDHLRKLNIPSLPLSGEQPADERRQVISFLMAKNVLVKLLYVTPEGLASNGAITRVLKSLYERKLLARIVIDEAHCVSHWGHDFRPDYKQLGLLRDRYQGIPFMALTATANEIVKKDIINTLRMENCLELKSSFNRPNLFYEIKPKKDLYTELYRFISNGHLHESGIIYCLSRTSCEQVAAKLRNDYGLKAWHYHAGLEKVERQRIQNEWQSGSYKIIVATIAFGMGVDKGDVRFVIHHSFPKSLEGYYQETGRAGRDGKPAHCIMFYSYKDHVTFQKLIMSGDGDAETKERQRQMLRQVIQFCENKTDCRRKQVLAYFGENFDKVHCRKGCDICCEEATYIKQDMTEFSLQAIKLLKSISGKATLLQLMDIFRGSKSAKIVENGWDRLEGAGVGKLLNRGDSERLFHHLVSEGVFVEKVEANRRGFVSAYVVPGRQTIINSVLAGKRRIILDVKESSSKPDTSSRSLSRSKTLPALREYQLKSTTASVDCSIGTREVDEIYDSQMPPVKPSLIHSRNKIDLEELSGQKFMSEYEIDVMTRCLKDLKLLRSNLMAIDDSRVSSYFTDSVLLSMAKKLPRNVKELKEIHGVSNEKAVNLGPKFLQVIQKFIDEKEQNLEGTELDPSLQSLDTDYPIDTNALSLDHEQGFSDDSDSVYEPSSPIEEGDEEVDGQRKDILNFMNSQSLTQTGSVPKRKSTSYTRPSKSYRHKRGSTSYSRKRKYSTSQKDSRKTSKSANTSFIHPMVKQNYR",binds
2,"endogenous Rqh1 (enzyme, UniProt Q09811 1-1328) MTVTKTNLNRHLDWFFRESPQKIENVTSPIKTLDFVKVKVSSSDIVVKDSIPHKSKNVFDDFDDGYAIDLTEEHQSSSLNNLKWKDVEGPNILKPIKKIAVPASESEEDFDDVDEEMLRAAEMEVFQSCQPLAVNTADTTVSHSTSSSNVPRSLNKIHDPSRFIKDNDVENRIHVSSASKVASISNTSKPNPIVSENPISATSVSIEIPIKPKELSNNLPFPRLNNNNTNNNNDNNAIEKRDSASPTPSSVSSQISIDFSTWPHQNLLQYLDILRDEKSEISDRIIEVMERYPFSSRFKEWIPKRDILSQKISSVLEVLSNNNNSNNNNGNNGTVPNAKTFFTPPSSITQQVPFPSTIIPESTVKENSTRPYVNSHLVANDKITATPFHSEAVVSPLQSNIRNSDIAEFDEFDIDDADFTFNTTDPINDESGASSDVVVIDDEEDDIENRPLNQALKASKAAVSNASLLQSSSLDRPLLGEMKDKNHKVLMPSLDDPMLSYPWSKEVLGCLKHKFHLKGFRKNQLEAINGTLSGKDVFILMPTGGGKSLCYQLPAVIEGGASRGVTLVISPLLSLMQDQLDHLRKLNIPSLPLSGEQPADERRQVISFLMAKNVLVKLLYVTPEGLASNGAITRVLKSLYERKLLARIVIDEAHCVSHWGHDFRPDYKQLGLLRDRYQGIPFMALTATANEIVKKDIINTLRMENCLELKSSFNRPNLFYEIKPKKDLYTELYRFISNGHLHESGIIYCLSRTSCEQVAAKLRNDYGLKAWHYHAGLEKVERQRIQNEWQSGSYKIIVATIAFGMGVDKGDVRFVIHHSFPKSLEGYYQETGRAGRDGKPAHCIMFYSYKDHVTFQKLIMSGDGDAETKERQRQMLRQVIQFCENKTDCRRKQVLAYFGENFDKVHCRKGCDICCEEATYIKQDMTEFSLQAIKLLKSISGKATLLQLMDIFRGSKSAKIVENGWDRLEGAGVGKLLNRGDSERLFHHLVSEGVFVEKVEANRRGFVSAYVVPGRQTIINSVLAGKRRIILDVKESSSKPDTSSRSLSRSKTLPALREYQLKSTTASVDCSIGTREVDEIYDSQMPPVKPSLIHSRNKIDLEELSGQKFMSEYEIDVMTRCLKDLKLLRSNLMAIDDSRVSSYFTDSVLLSMAKKLPRNVKELKEIHGVSNEKAVNLGPKFLQVIQKFIDEKEQNLEGTELDPSLQSLDTDYPIDTNALSLDHEQGFSDDSDSVYEPSSPIEEGDEEVDGQRKDILNFMNSQSLTQTGSVPKRKSTSYTRPSKSYRHKRGSTSYSRKRKYSTSQKDSRKTSKSANTSFIHPMVKQNYR",binds
3,"Pcf2-MYC (protein, UniProt O13985 1-512) MRAEVLQIRWHYDANDDHTPIYSVDFQKNSLNKFATCGGDSKIRIWQLITSESSTKVEYLSTLSRHTQAVNVVRFNPEGNILATAGDEGTIMLWVPTNTPITTLADDAEELALAKEYWKVKIVCRSMGSEIYDLCWSVDSNFLIAGAMDNSLRLYDAHTGQLLTQKFDHSHYVQGVCWDPLNQYIVSESSDRSICLYEIQEEKKNPKKFQLVLKSRICRIEYNVTKFELISVTKPLNNDESSGISEPIETSNNNESPVSKHEALSSTANIVKDGSLERTEPPNSLNSKISYSLYCNETLVSFFRRPAFSPDGLLLVTPAGRLRPHGQPNFEVPYTAYIYTRGSITKQPVACLNGFKKPVIAVRFSPIHYELNSFSNFSFTSVSFNLPYRMVFAVACQDAVYIYDTQTCKPFYRAVNLHYSNLTDIAWNDDGNVLLMTSIDGFCSVITFEPGELGVKSQHKISLPEKRSASPSSIDDSQDNTAGGPATTTLIPRKVESSKVSKKRIAPTPVYP",binds
